Measurements from PMC8100125.
No constants are given. Whether binding was seen depends on the method and setting. In cells and extracts the contact can be indirect.

The chains behind the UniProt entries cited, without tags or fusion partners. Where a name states a change or a piece, a line headed by the entry shows the natural chain unless it says otherwise.
UniProt P63331: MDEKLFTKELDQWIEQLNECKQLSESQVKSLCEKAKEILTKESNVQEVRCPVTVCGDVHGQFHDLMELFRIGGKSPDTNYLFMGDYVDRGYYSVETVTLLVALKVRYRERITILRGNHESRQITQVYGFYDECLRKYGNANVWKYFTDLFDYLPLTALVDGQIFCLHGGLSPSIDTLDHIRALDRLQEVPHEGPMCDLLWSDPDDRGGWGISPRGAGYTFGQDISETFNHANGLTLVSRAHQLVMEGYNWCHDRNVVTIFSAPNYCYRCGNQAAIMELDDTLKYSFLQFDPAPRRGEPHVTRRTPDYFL

Target: T1, Hyperpolarization-activated, cyclic nucleotide-gated cation channel 4 (native rat HCN4 of NRVMs) (rat (endogenous in NRVMs)) (UniProt Q9JKA7)
T1 sequence: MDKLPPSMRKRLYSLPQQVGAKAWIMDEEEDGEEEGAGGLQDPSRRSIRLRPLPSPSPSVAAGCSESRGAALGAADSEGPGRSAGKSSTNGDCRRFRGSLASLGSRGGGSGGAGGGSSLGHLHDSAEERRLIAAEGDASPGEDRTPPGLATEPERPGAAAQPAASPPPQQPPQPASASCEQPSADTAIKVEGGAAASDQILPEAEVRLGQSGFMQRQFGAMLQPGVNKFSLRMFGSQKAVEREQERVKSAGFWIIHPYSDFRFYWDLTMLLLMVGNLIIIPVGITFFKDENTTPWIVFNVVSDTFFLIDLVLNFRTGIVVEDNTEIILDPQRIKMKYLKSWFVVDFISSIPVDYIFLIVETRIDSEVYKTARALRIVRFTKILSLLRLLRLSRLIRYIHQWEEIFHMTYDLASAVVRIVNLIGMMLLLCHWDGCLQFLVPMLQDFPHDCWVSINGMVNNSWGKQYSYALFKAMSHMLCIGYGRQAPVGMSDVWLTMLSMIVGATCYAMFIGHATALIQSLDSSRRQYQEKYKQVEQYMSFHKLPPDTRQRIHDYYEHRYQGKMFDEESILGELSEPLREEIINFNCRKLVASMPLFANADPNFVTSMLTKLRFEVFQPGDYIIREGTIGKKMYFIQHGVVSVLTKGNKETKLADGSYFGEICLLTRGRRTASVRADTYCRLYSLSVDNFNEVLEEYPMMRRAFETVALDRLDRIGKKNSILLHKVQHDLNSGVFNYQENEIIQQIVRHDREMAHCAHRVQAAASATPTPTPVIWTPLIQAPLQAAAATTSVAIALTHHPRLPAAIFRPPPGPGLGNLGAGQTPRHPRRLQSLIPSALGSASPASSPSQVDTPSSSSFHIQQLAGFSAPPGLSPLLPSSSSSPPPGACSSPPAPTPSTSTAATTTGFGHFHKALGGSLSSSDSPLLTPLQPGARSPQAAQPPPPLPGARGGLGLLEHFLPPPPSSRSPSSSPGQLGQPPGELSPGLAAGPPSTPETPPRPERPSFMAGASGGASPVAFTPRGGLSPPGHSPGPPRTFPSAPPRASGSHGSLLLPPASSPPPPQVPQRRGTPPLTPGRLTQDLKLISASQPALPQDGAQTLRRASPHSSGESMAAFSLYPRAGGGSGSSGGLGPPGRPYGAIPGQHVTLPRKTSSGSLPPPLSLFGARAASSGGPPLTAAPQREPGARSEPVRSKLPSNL
Assay: co-IP; NRVMs; co-IP for PP2A and SGO1 and for PP2A and HCN4 (Supplementary Fig. 2); which antibody precipitated is not given

binding: no binding
Substance: protein-phosphatase 2 A (PP2A), detected by its C subunit (from UniProt P63331) (enzyme)
